The results in this text go back to publication PMC11302878.

Chains of the proteins cited; added tags and fusions are not shown. Residues count along the entry.
UniProt P35222: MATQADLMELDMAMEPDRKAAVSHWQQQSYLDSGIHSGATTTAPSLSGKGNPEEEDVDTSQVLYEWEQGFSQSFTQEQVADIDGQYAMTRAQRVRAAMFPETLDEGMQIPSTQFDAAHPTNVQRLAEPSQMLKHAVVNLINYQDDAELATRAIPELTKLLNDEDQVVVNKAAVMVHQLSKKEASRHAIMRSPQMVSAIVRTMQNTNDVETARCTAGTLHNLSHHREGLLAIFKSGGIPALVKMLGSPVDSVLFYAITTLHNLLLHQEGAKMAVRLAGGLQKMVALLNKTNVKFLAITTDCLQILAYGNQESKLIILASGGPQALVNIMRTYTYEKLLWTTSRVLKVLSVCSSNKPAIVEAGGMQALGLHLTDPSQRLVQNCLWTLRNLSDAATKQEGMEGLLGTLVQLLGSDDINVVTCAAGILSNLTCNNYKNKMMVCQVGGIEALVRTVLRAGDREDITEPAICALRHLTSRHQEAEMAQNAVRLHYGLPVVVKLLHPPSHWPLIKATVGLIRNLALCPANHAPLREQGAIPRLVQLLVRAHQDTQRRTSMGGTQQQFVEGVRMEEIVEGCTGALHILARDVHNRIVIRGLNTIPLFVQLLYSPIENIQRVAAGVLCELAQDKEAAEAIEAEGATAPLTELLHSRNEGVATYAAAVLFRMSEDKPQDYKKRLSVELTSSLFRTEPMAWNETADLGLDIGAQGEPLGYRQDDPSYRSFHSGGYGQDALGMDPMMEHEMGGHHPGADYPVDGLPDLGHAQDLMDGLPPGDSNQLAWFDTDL
UniProt Q96FW1, residues 47-271: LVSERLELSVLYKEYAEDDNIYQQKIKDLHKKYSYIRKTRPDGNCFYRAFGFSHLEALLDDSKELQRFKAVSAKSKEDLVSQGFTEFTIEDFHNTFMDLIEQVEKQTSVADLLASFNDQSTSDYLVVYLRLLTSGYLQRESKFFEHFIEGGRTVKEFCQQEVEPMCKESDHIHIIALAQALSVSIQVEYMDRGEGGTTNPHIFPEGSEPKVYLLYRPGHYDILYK

Results are given in words; binding and its absence hold for the method and conditions named. Binding seen in cells or lysates may run through a third protein. Some entries that bind do so weakly or less than the wild type.

The assay has as its target β-catenin (human (endogenous in T24 cisplatin-resistance cells)) (UniProt P35222). In words: co-IP; cells with OTUB1 or β-catenin domain fragments and point mutants (Fig. 5D-L); RIPA lysate and PMSF, antibody overnight at 4°C, western blot. In general terms: Immunoblotting shows a protein as a band on a membrane.

For the substance “OTUB1 47-271 domain fragment (C-terminal OTU domain) (from UniProt Q96FW1 47-271) (domain or fragment)”, the binding entry is “binds”.
